Measurements reported in article PMC9988257.
These are yes or no findings as the source states them, for the method shown. Binding seen in cells or lysates may run through a third protein. Some results given as binding are weak or reduced against the parent protein; the word gives no strength. For some assays here: Where a sequence is shown, tags or fusion partners need not be part of it. Each block holds one molecule with its values, some of them ahead of it.

Sequences of proteins named here, by UniProt entry; tags and fusion partners are left off.
UniProt P97479: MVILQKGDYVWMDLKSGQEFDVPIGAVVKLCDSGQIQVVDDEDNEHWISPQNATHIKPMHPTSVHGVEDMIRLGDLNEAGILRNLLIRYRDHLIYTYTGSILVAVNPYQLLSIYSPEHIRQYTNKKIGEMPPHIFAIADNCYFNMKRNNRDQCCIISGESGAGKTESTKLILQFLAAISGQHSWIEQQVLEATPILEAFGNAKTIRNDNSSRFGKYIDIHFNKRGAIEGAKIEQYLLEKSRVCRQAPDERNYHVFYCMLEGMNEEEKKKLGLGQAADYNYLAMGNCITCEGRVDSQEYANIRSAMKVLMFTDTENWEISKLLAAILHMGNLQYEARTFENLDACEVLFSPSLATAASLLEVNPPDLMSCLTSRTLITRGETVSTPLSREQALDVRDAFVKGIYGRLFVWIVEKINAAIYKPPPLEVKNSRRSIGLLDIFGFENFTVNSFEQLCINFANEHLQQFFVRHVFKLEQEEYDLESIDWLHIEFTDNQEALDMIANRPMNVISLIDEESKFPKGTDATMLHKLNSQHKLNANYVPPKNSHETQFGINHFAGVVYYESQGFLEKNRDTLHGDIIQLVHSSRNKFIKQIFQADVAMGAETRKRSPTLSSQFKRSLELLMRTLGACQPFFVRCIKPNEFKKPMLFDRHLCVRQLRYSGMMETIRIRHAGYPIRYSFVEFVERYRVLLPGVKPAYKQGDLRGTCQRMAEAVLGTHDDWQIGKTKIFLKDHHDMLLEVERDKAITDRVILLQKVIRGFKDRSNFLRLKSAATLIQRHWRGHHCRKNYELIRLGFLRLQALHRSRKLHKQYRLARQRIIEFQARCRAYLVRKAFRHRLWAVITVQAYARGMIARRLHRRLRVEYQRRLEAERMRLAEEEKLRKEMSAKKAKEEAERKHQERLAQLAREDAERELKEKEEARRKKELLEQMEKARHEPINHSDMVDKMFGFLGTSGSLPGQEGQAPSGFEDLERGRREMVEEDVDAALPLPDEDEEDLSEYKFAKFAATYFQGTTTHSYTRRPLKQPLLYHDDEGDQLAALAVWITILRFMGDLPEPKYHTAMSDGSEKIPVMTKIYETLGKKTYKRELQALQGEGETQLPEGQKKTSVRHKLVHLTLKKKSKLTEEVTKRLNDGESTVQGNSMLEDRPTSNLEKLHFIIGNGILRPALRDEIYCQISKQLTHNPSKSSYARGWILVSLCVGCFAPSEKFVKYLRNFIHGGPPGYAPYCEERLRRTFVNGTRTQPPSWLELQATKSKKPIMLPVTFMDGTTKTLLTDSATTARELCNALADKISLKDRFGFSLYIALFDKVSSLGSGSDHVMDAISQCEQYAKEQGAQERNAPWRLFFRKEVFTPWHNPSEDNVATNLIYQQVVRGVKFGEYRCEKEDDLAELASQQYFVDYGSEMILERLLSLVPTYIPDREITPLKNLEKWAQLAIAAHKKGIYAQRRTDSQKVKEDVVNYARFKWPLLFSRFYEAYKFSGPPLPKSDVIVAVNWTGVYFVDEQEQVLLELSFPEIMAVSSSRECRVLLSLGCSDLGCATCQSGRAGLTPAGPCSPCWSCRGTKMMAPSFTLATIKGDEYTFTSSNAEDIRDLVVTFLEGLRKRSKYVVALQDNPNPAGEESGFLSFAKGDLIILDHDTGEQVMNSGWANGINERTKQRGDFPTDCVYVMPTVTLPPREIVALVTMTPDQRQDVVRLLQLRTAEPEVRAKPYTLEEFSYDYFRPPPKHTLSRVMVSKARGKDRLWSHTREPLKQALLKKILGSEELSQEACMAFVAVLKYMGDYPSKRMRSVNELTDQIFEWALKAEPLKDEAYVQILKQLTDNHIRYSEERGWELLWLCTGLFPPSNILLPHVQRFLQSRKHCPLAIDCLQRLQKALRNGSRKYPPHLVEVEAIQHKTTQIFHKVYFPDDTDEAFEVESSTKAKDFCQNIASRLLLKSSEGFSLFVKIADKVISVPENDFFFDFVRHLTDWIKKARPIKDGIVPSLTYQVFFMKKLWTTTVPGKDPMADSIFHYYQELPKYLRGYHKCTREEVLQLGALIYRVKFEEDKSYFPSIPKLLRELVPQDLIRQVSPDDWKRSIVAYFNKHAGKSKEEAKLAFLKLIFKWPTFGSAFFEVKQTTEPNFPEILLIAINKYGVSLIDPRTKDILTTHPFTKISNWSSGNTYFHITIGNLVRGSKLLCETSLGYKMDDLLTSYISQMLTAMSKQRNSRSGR
UniProt Q99104: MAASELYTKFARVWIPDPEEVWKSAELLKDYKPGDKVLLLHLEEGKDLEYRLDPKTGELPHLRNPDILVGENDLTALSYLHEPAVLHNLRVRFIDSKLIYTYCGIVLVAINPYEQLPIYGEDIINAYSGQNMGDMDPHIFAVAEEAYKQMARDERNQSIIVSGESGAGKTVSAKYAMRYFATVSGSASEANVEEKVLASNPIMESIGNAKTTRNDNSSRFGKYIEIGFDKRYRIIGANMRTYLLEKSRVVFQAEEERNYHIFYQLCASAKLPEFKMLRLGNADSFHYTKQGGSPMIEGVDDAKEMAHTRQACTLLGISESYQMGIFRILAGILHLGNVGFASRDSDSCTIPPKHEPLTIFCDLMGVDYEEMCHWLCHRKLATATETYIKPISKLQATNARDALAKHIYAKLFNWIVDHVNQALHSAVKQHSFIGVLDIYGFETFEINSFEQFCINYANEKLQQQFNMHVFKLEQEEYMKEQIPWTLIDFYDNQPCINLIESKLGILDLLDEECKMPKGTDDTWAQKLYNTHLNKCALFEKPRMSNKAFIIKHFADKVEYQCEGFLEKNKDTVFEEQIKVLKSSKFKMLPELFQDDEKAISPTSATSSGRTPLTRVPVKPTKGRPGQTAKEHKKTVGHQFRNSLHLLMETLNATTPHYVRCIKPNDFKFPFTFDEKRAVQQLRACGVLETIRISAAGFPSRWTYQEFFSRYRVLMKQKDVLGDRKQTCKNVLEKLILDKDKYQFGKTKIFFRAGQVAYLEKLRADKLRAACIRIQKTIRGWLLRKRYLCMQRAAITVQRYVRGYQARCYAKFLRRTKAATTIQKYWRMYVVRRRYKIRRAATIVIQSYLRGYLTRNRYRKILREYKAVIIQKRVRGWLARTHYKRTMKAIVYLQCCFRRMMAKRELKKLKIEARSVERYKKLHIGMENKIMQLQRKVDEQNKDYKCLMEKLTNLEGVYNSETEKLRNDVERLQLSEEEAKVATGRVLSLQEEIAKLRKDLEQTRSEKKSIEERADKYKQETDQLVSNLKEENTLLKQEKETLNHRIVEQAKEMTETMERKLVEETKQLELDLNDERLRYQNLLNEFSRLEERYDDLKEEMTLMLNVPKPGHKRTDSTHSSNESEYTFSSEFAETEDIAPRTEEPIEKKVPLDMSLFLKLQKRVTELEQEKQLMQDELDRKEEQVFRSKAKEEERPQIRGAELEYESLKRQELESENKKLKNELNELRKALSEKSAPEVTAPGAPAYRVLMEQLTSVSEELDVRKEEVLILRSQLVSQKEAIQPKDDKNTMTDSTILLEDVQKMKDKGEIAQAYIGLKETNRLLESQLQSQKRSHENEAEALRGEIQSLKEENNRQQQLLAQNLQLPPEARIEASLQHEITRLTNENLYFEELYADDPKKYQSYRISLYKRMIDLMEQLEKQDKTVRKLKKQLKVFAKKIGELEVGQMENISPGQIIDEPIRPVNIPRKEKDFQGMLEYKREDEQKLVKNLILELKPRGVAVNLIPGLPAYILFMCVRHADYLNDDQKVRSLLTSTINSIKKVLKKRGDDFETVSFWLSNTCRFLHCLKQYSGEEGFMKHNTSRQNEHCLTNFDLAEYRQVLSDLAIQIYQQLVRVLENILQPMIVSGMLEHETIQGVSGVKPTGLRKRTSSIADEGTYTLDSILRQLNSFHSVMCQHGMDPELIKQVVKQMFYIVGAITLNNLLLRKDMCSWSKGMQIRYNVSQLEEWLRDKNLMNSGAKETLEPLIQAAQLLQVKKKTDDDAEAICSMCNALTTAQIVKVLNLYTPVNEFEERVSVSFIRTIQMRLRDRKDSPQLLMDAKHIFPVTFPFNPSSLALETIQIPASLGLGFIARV

How the values were obtained:
[1] = target: T1, FLAG-tagged exophilin-8 (expressed in MIN6 cells) (mouse) (UniProt Q8K3I4); assay: co-IP; MIN6 cells expressing FLAG-tagged melanophilin or exophilin-8; immunoprecipitated with anti-FLAG antibody; immunoblotted for endogenous proteins
T1 sequence: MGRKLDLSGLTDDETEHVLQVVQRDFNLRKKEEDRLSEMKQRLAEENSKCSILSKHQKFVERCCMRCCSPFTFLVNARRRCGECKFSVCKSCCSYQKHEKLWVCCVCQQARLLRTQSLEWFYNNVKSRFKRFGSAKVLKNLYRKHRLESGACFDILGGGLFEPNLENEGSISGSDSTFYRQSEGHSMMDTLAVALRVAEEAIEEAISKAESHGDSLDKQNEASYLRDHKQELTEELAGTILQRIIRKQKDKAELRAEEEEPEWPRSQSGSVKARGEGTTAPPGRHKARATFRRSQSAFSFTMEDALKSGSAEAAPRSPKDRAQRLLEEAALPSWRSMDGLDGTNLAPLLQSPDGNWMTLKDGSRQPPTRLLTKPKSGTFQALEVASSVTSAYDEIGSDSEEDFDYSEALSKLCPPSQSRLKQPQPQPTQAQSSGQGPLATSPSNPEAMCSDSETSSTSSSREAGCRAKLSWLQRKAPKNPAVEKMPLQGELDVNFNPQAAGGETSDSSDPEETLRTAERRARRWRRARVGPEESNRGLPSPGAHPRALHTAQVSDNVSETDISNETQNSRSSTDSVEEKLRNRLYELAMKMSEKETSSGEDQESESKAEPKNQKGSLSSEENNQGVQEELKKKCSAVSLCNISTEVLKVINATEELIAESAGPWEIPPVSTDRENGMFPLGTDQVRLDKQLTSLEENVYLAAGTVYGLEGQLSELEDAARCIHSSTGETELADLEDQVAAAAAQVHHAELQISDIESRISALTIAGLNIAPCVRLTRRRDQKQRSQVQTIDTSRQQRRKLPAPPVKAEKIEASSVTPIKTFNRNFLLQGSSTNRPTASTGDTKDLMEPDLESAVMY

[2] = target: T2, FLAG-melanophilin (expressed in MIN6 cells) (mouse) (UniProt Q91V27); assay: as above
T2 sequence: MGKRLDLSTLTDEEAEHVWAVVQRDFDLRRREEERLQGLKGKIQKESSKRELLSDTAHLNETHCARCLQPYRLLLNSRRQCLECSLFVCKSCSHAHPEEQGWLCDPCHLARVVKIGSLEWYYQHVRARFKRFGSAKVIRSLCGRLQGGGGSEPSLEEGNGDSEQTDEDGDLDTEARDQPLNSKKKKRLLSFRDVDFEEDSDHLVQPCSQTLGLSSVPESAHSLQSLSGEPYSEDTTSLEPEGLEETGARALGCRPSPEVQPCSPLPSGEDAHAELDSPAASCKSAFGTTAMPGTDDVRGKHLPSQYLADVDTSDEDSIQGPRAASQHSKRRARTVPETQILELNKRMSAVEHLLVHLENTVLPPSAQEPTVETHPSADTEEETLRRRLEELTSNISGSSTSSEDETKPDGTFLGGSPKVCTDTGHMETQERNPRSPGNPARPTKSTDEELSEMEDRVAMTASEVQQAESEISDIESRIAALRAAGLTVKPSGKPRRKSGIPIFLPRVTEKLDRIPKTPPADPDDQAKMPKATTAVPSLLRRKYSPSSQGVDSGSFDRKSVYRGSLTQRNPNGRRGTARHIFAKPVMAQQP

[3] = target: T3, OSF-tagged exophilin-8 (expressed in HEK293A cells) (mouse) (UniProt Q8K3I4); assay: pull-down; HEK293A cells co-transfected; cell extracts pulled down with Strep-Tactin beads; gel stained with Coomassie Brilliant Blue
T3 sequence: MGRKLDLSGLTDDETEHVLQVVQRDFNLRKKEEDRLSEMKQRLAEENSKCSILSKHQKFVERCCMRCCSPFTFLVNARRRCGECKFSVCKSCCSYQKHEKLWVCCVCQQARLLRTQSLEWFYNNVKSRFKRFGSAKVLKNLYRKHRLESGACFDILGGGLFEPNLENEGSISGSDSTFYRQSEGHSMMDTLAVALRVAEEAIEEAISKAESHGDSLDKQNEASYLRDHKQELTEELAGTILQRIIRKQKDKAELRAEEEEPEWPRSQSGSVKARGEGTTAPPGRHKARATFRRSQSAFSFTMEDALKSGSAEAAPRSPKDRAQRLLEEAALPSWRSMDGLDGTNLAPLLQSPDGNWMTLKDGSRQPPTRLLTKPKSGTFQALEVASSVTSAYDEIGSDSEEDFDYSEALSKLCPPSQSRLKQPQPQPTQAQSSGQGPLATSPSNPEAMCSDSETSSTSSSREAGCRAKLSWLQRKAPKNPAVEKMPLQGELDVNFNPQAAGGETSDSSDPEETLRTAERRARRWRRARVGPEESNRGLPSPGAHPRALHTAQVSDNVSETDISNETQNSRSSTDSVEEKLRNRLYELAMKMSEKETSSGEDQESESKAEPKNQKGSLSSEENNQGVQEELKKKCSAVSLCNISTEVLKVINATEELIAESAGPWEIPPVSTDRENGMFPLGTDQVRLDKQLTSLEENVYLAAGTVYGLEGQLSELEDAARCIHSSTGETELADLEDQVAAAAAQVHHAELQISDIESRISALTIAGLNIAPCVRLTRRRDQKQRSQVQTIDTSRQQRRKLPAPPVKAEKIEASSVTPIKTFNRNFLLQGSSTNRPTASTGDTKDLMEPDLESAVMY

[4] = target: T4, OSF-melanophilin (expressed in HEK293A cells) (mouse) (UniProt Q91V27); assay: as above
T4 sequence: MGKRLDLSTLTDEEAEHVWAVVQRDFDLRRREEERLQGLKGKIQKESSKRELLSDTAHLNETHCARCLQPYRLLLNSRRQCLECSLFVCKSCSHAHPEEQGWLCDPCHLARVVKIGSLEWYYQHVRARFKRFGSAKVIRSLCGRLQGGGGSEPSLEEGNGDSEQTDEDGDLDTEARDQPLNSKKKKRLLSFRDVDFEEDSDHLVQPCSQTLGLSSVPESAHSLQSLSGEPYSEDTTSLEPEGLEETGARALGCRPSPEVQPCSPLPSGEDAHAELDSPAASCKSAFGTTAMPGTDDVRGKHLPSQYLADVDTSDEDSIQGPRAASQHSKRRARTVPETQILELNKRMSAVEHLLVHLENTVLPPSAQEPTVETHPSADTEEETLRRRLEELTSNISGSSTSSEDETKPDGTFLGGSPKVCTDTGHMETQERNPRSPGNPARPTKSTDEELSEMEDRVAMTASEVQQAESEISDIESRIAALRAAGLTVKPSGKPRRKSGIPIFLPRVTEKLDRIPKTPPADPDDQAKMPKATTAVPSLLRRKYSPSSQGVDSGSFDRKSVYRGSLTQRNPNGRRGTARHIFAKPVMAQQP

binding [1]: binds
Molecule: myosin-VIIa (endogenous, MIN6 cells) (from UniProt P97479 1-2215)

binding [2]: binds
Molecule: myosin-Va (endogenous, MIN6 cells) (from UniProt Q99104 1-1853)

Second part, the molecule before the results:

B1: RIM-BP2 (endogenous, MIN6 cells) (protein, UniProt Q80U40 1-1072)
chain: MREAAERRQQLELEHEQALAFLNAKQQEIQLLQQAQVEAKKEHEGAVQLLESKVRELEEKCRVQSEQFNLLSRDLEKFRQHTGSIDLLGSSSVALLDVPLAPGKPFPQYMNGLATSIHKGHEGPTGHYSVIGDYIPLSGDKLESPCVKPSFLLRSSSPRCRFESEMDNDRNSNNSKQSSSGKVHLCVARYSYNPFDGPNENPEAELPLTAGKYLYVYGDMDEDGFYEGELLDGQRGLVPSNFVDFIQDNESRLAGTLGSEQDQNFLNHSGISLERDSILHLHSPTQVDSGITDNGGGTLDVNIDDIGEDTVPYPRKITLIKQLAKSVIVGWEPPAVPPGWGTVSSYNVLVDKETRMSLALGRRTKALIEKLNTAACTYRISVQCVTSRGNSDELQCTLLVGKDVVVAPSQLRVDNITQISAQLSWLPTNSNYSHIIFLNEEELDIVKAARYKYQFFNLRPNMAYKVKVLAQPHQMPWQLPLEQREKKEACVEFSTLPAGPPAPPQDVTVHAGATAASVQVSWKPPALTPTGLSNGANVTGYGVYAKGQRVAEVIAPTADGTAVELIRLRSLEAKAVSVRTLSVQGESMDSALAAIPPDLLVPPAPHPRTAPPPKPLASDMDTKDQHLGPHVKVDESWEQSRSPGPAHGHMLEPPDMHSAGPGRRSPSPSRILPQPQGAPVSTTVAKAMAREAAQRVAESNRLEKRSLFLEQSSAGQYTNSDEEDGYASPEVKRRGTSVDDFLKGSELGKQPHCCHGDEYHTESSRGSDLSDIMEEDEEELYSEMQLEDGGRRRPSGTSHNALKILGNSTLMGRADRMEHVSRRYSHSGGGSHRHRPAMAPSIDEYTGRDHLSPDFYDESETDPGAEELPARIFVALFDYDPLTMSPNPDAAEEELPFKEGQIIKVYGDKDADGFYRGETCARLGLIPCNMVSEIHADDEEMMDQLLRQGFLPLNTPVEKIERSRRSGRGHSVPTRRMVALYDYDPRESSPNVDVEAELPFCTGDIITVFGEIDEDGFYYGELNGQKGLVPSNFLEEVPDDVEVHLSDAPPHYSHDPPMRSKAKRKKSVHFTP
binding [1]: binds

B2: Melanophilin (coexpressed with OSF-exophilin-8 in HEK293A cells) (protein, UniProt Q91V27 1-590)
chain: MGKRLDLSTLTDEEAEHVWAVVQRDFDLRRREEERLQGLKGKIQKESSKRELLSDTAHLNETHCARCLQPYRLLLNSRRQCLECSLFVCKSCSHAHPEEQGWLCDPCHLARVVKIGSLEWYYQHVRARFKRFGSAKVIRSLCGRLQGGGGSEPSLEEGNGDSEQTDEDGDLDTEARDQPLNSKKKKRLLSFRDVDFEEDSDHLVQPCSQTLGLSSVPESAHSLQSLSGEPYSEDTTSLEPEGLEETGARALGCRPSPEVQPCSPLPSGEDAHAELDSPAASCKSAFGTTAMPGTDDVRGKHLPSQYLADVDTSDEDSIQGPRAASQHSKRRARTVPETQILELNKRMSAVEHLLVHLENTVLPPSAQEPTVETHPSADTEEETLRRRLEELTSNISGSSTSSEDETKPDGTFLGGSPKVCTDTGHMETQERNPRSPGNPARPTKSTDEELSEMEDRVAMTASEVQQAESEISDIESRIAALRAAGLTVKPSGKPRRKSGIPIFLPRVTEKLDRIPKTPPADPDDQAKMPKATTAVPSLLRRKYSPSSQGVDSGSFDRKSVYRGSLTQRNPNGRRGTARHIFAKPVMAQQP
binding [3]: no binding

B3: Exophilin-8 (coexpressed with OSF-melanophilin in HEK293A cells) (protein, UniProt Q8K3I4 1-856)
chain: MGRKLDLSGLTDDETEHVLQVVQRDFNLRKKEEDRLSEMKQRLAEENSKCSILSKHQKFVERCCMRCCSPFTFLVNARRRCGECKFSVCKSCCSYQKHEKLWVCCVCQQARLLRTQSLEWFYNNVKSRFKRFGSAKVLKNLYRKHRLESGACFDILGGGLFEPNLENEGSISGSDSTFYRQSEGHSMMDTLAVALRVAEEAIEEAISKAESHGDSLDKQNEASYLRDHKQELTEELAGTILQRIIRKQKDKAELRAEEEEPEWPRSQSGSVKARGEGTTAPPGRHKARATFRRSQSAFSFTMEDALKSGSAEAAPRSPKDRAQRLLEEAALPSWRSMDGLDGTNLAPLLQSPDGNWMTLKDGSRQPPTRLLTKPKSGTFQALEVASSVTSAYDEIGSDSEEDFDYSEALSKLCPPSQSRLKQPQPQPTQAQSSGQGPLATSPSNPEAMCSDSETSSTSSSREAGCRAKLSWLQRKAPKNPAVEKMPLQGELDVNFNPQAAGGETSDSSDPEETLRTAERRARRWRRARVGPEESNRGLPSPGAHPRALHTAQVSDNVSETDISNETQNSRSSTDSVEEKLRNRLYELAMKMSEKETSSGEDQESESKAEPKNQKGSLSSEENNQGVQEELKKKCSAVSLCNISTEVLKVINATEELIAESAGPWEIPPVSTDRENGMFPLGTDQVRLDKQLTSLEENVYLAAGTVYGLEGQLSELEDAARCIHSSTGETELADLEDQVAAAAAQVHHAELQISDIESRISALTIAGLNIAPCVRLTRRRDQKQRSQVQTIDTSRQQRRKLPAPPVKAEKIEASSVTPIKTFNRNFLLQGSSTNRPTASTGDTKDLMEPDLESAVMY
binding [4]: no binding
